Results from publication PMC8187923.
No constants are given. Whether binding was seen depends on the method and setting. In cells and extracts the contact can be indirect. Some binding calls cover weakened binding; strength is not graded here.

The chains behind the UniProt entries cited, without tags or fusion partners.
UniProt P19474: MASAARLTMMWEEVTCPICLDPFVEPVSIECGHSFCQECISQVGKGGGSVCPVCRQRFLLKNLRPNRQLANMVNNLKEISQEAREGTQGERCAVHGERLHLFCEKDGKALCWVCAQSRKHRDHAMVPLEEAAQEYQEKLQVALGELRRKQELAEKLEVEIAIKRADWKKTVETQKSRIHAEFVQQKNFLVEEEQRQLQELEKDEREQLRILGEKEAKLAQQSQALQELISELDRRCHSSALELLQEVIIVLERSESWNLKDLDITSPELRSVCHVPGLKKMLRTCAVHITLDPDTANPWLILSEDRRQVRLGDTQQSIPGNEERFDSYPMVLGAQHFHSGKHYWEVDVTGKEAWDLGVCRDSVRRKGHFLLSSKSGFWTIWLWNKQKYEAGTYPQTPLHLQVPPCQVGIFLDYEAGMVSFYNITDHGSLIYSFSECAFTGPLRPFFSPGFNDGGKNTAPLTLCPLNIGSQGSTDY
UniProt Q04206: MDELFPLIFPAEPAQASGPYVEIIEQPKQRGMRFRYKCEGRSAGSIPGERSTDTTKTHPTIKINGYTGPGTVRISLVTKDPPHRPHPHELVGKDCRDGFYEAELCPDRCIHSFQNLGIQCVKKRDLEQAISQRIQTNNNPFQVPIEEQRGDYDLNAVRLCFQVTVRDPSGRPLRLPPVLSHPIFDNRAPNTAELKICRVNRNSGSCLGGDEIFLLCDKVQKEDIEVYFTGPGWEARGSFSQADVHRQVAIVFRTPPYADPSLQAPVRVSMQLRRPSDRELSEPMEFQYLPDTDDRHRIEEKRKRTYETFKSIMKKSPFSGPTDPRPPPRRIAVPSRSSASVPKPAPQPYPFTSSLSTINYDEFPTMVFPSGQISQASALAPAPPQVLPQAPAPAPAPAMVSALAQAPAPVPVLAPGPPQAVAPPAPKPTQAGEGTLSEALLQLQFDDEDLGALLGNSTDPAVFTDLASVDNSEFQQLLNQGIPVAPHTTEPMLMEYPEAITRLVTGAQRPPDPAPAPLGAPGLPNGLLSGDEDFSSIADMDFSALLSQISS
UniProt P25963: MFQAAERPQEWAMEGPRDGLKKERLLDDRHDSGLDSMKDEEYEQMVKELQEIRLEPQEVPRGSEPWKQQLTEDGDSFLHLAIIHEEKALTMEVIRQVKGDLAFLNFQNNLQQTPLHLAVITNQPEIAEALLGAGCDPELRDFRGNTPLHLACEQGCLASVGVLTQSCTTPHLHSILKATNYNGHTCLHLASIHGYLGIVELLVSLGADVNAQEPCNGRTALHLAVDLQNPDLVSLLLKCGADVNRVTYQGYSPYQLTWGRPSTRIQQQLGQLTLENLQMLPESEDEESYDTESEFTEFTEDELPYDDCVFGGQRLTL

Assays:
Experiment in all cases: co-IP
[1] = target: Human TRIM21, HA-tagged (pcDNA3.1-TRIM21-HA) (human) (UniProt P19474)
[2] = target: Endogenous TRIM21 of HEK293T cells (human (endogenous in HEK293T)) (UniProt P19474)
[3] = target: Endogenous p65 of HEK293T cells (human (endogenous in HEK293T)) (UniProt Q04206)

For “Endogenous IκB-α of HEK293T cells (from UniProt P25963 1-317) (other; other documents disagree on this pair)”, the binding [1] was “binds” and the binding [2] was “binds”.

With “Human TRIM21, HA-tagged (pcDNA3.1-TRIM21-HA) (from UniProt P19474 1-475) (enzyme)” the binding [3] was “binds”.
